Assay results: PubChem BioAssay AID2417 (National Center for Advancing Translational Sciences (NCATS), 2010)
The whole screen tested about 140,000 compounds, of which about 4,300 (3.1%) were called active. Inconclusive results, whose numbers are uncertain, are shown with a selection of clear calls.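 The calls were made as follows: active = readout at or below -70, meaning at least 70% loss of cells showing the perinucleolar compartment, a nuclear body marking cancer cells; inconclusive = readout between -30 and a set limit; inactive = the rest.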

Assay: High Content Assay for Compounds that inhibit the Assembly of the Perinucleolar Compartment;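 also: plate controls were DMSO wells for no effect and camptothecin positive control wells for full effect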
Conditions: PC3M PTB-GFP, PNC prevalence imaging, 16 h; at 10 µM; stronger effect = lower value
Method in brief: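 Read-out is percentage of cells bearing a perinucleolar compartment, from automated 20x imaging of fixed, Hoechst-stained PC3M PTB-GFP cells. Cells were seeded 4 h, then exposed 16 h to compound (23 nl of library stock) in duplicate plates.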

Row | SMILES | activity change (PNC), negative = inhibition
1 | CC(=O)N1C(=O)C2(C(C#N)=C(N)Oc3cc(C)oc(=O)c32)c2ccccc21 (stereo unspecified) | active: -115%
2 | CC(/C=N/NC(=O)c1cc(-c2ccc(Cl)cc2)nc2ccccc12)=C\c1ccco1 | inconclusive: -75.6%
3 | CC1CCCN(C(=O)CN2CCN(C(=O)c3ccco3)CC2)C1 (stereo unspecified) | inconclusive: -44.9%
4 | O=C(CSc1nnc(-c2ccco2)o1)N1c2ccccc2CCc2ccccc21 | inactive: 22.9%
5 | CCOC(=O)Cc1csc(NC(=O)CSc2nnc(C(C)C)n2C)n1 | inconclusive: -55.1%
6 | O=C(CSc1nncn1-c1ccccc1)Nc1cc(Cl)cc(Cl)c1 | inconclusive: -47.3%
7 | Cn1c(N)c(C(=O)c2ccc(F)cc2F)c(=O)n(C)c1=O | inactive: -12.6%
8 | Cc1c(C(=O)NCc2ccc3c(c2)cc(C)n3C)cccc1[N+](=O)[O-] | inactive: 49.7%
9 | COc1ccc(CCC(=O)Nc2ccc(C)c([N+](=O)[O-])c2)cc1 | inconclusive: -47.4%
10 | Cc1ccc(-n2c(=O)[nH]cc(C(=O)N3CCc4ccccc43)c2=O)cc1C | inconclusive: -35.5%
11 | CCOC(=O)c1sc(=S)n(-c2ccccc2Cl)c1SC | inactive: 9.99%
12 | CCOc1ccc(NC(=O)Cn2nnc(-c3ccccc3NC(=O)C3CC3)n2)cc1 | inactive: -6.39%
13 | CCN(CC)C1=N/C(=C\c2ccco2)C(=O)N1c1ccccc1 | inactive: 28.2%
14 | COc1ccc(C(=O)Nc2nncs2)cc1S(=O)(=O)N1CC(c2ccccc2)CC1=O (stereo unspecified) | inactive: -0.182%
15 | c1csc(-c2csc(-c3cccs3)n2)c1 | inconclusive: -49.1%
16 | O=C(NC(=S)Nc1ccc(NC(=O)c2cccs2)cc1)c1cc2ccccc2o1 | inactive: 34.9%
17 | COc1cc2c(cc1OC)-c1nncn1C(C)(C)C2 | inconclusive: -65.5%
18 | CCOc1ccccc1NC(=O)CSc1nnnn1Cc1ccccc1 | active: -81.8%
19 | CC1CCN(S(=O)(=O)c2ccc3[nH]cc(C(=O)NCCN4CCOCC4)c(=O)c3c2)CC1 | inconclusive: -68.2%
20 | COc1cc(/C=N/NC(=O)c2cccnc2)ccc1OS(=O)(=O)c1ccc(C)cc1 | inactive: 27.9%
21 | Cc1nc2cc(Nc3nnc(-c4ccccc4)c4ccccc34)ccc2n1C | inactive: -28.5%
22 | c1cc(-c2noc(CCC3CCCC3)n2)ccn1 | inconclusive: -71.6%
23 | Cc1ccc(CNC(=O)Cc2ccc(-n3c(=O)[nH]c4ccsc4c3=O)cc2)cc1 | inconclusive: -70.7%

Row | SMILES | activity change (PNC), negative = inhibition
24 | CSc1nnc(-c2ccco2)c(-c2ccco2)n1 | inactive: 3.63%
25 | COC(=O)CN1C(=O)C2(C(C#N)=C(N)Oc3cc(C)oc(=O)c32)c2ccccc21 (stereo unspecified) | inactive: -28%
26 | COc1cccc(C(=O)NNC(=O)c2ccccc2Br)c1 | inconclusive: -40.5%
27 | CCOC(=O)c1[nH]c2ccc(OC)cc2c1NC(=O)CN1CCN(c2ccccn2)CC1 | inconclusive: -63.2%
28 | COc1ccc2nc(/N=C\N(C)C)sc2c1 | inconclusive: -48.6%
29 | COc1ccc(NC(=O)C(NC(=O)c2ccc(=O)[nH]c2)c2ccc(OC)cc2)cc1 (stereo unspecified) | active: -109%
30 | O=C(/C=C/c1ccc(Cl)cc1)NC(=S)Nc1ccc(CN2CCOCC2)cc1 | inactive: -25.2%
31 | CCc1ccccc1N=C1SCC(=O)N1C | inconclusive: -37.9%
32 | COc1ccc(C(=O)n2nc(-c3ccc(OC)cc3)nc2N)cc1 | inconclusive: -65.5%
33 | O=C(Nc1cc(N2CCOCC2)ncn1)NC1(C(F)(F)F)Oc2ccccc2O1 | inactive: 22.4%
34 | O=C1CC(c2ccc3c(c2)OCO3)CN1 (stereo unspecified) | inconclusive: -46.8%
35 | CCOC(=O)N/N=C/c1c(F)cccc1F | inconclusive: -39.2%
36 | COc1ccccc1NC(=O)/C(C#N)=C/c1cc([N+](=O)[O-])ccc1N1CCCC1 | inactive: -7.14%
37 | Cc1ccc(C(=O)NC(=S)/C=C2\N(C)c3ccccc3C2(C)C)cc1 | inconclusive: -58.7%
38 | COc1ccc(CNC(=O)NC2CCCCC2)cc1 | inconclusive: -31%
39 | Cc1cc(N2CCCC2)c(C)cc1C=O | inactive: 43.6%
40 | CCOC(=O)c1[nH]c2ccccc2c1NC(=O)CC | inconclusive: -32.3%
41 | COc1ccc(CCN(C(=O)c2cccc(F)c2)C2CC(=O)N(c3ccccc3)C2=O)cc1 (stereo unspecified) | inconclusive: -49.7%
42 | Cc1nn(CC(=O)Nc2ccncc2)c(C)c1[N+](=O)[O-] | inconclusive: -30.7%
43 | CC(=O)c1c(C)nn(CC(O)Cn2c3c(c4cc(C)ccc42)CCCC3=O)c1C (stereo unspecified) | inconclusive: -36.1%
44 | C/C(CC(O)(/C=N/O)c1ccccc1)=N\O (stereo unspecified) | inconclusive: -36.2%
45 | C[C@@H]1NC(=O)[C@H](CC(N)=O)NC(=O)c2cc([N+](=O)[O-])cc(I)c2OCC[C@@H](C(=O)NC(CC(=O)O)C(N)=O)NC1=O (stereo partly specified) | inconclusive: -52.9%
46 | CCCn1c(C)cc(/C=C(\C#N)C(=O)OCC(=O)Nc2cccc(OC)c2)c1C | inactive: -23.1%

Row | SMILES | activity change (PNC), negative = inhibition
47 | O=c1c2ccccc2nnn1CSc1nnc(-c2cccc(S(=O)(=O)N3CCCCC3)c2)o1 | inconclusive: -74.2%
48 | CCc1ccccc1NC(=O)NC1CC2CCC(C1)N2Cc1cccs1 (stereo unspecified) | inconclusive: -30%
49 | O=C(COc1ccccc1Cl)NCc1ccncc1 | inactive: -13.4%
50 | CCCSc1nc(C)cc(=O)[nH]1 | inactive: -7.17%
51 | CC(=O)Nc1cccc(Cl)c1C(=O)O | inconclusive: -41.2%
52 | COc1ccc(C(=O)NCCCN2CCCC2=O)cc1 | inconclusive: -35.7%
53 | Cc1cccc(C(=O)Oc2ccccc2/C=N/Nc2ccc([N+](=O)[O-])cc2)c1 | inconclusive: -64.6%
54 | COC(=O)c1ccc(C(=O)OC)c(NC(=S)N2CCCC(C)C2)c1 (stereo unspecified) | inactive: 31.3%
55 | CCc1cc(=O)oc2cc(C)c(CN3CCCC(C)C3)c(O)c12 (stereo unspecified) | inactive: 30.3%
56 | NC(=O)c1cccnc1Oc1cccc(Cl)c1 | inconclusive: -35.9%
57 | Cc1ccccc1-n1c(SCc2c(C)noc2C)nnc1-c1c[nH]c2ccccc12 | inconclusive: -59.3%
58 | CCCn1c(C2CC(=O)N(c3cc(OC)ccc3OC)C2)nc2ccccc21 (stereo unspecified) | inconclusive: -75.2%
59 | CCc1nnc(NC(=O)c2sc3nc4cc(C)ccc4cc3c2N)s1 | inactive: 12.7%
60 | CC(C)c1nnc(SCC(=O)NCCC2=CCCCC2)n1N | inconclusive: -40.9%
61 | Cc1cc(C)c2c(=O)c3c(oc2c1)C(=O)N(CCO)C3c1cccc(O)c1 (stereo unspecified) | inconclusive: -48.5%
62 | COc1ccc(C(=O)NCCC(C)C)cc1S(=O)(=O)N1CCOCC1 | inconclusive: -38%
63 | CC(=O)c1ccc(C#CC(C)(C)O)s1 | inconclusive: -58.6%
64 | Cc1c(-c2ccc(F)cc2)[n+](=O)c(-c2ccc(F)cc2)c(C)n1[O-] | inconclusive: -36.8%
65 | COc1ccccc1NC(=O)COC(=O)C1CCN(/C=C/C(=O)C(F)(F)F)CC1 | inconclusive: -42%
66 | C/C(=N\NC(=O)Cc1cccn1C)c1cccs1 | inactive: 7.23%
67 | COc1ccccc1/C=C1\S/C(=N/NC(=O)c2cccc(Br)c2)NC1=O | inconclusive: -30.9%
68 | O=C(/C=C/c1ccc(Cl)cc1Cl)NCCSCc1ccccc1 | inconclusive: -69.7%
69 | CCOc1ccc(-c2nnc3ccc(SCC(=O)Nc4nc5ccc(C)cc5s4)nn23)cc1 | inconclusive: -44%

Row | SMILES | activity change (PNC), negative = inhibition
70 | Cc1nn2c(Nc3ccc(F)cc3)c3c(nc2c1-c1ccccc1)CCC3 | inconclusive: -60.3%
71 | Cc1ccccc1CSCC(=O)Nc1ccccc1-c1ccccc1 | inconclusive: -45.6%
72 | O=C(CC(NC(=O)C(F)(F)F)c1ccccc1)Nc1nnc(CCc2ccccc2)s1 (stereo unspecified) | inconclusive: -39.5%
73 | Cc1ccc(S(=O)(=O)Nc2nc3ccc(S(C)(=O)=O)cc3s2)cc1 | inconclusive: -40.5%
74 | O=C(Nc1ccc2c(c1)OCCO2)C1CCCN(S(=O)(=O)c2cccc3nsnc23)C1 (stereo unspecified) | active: -113%
75 | C=CCn1c(SC2CCOC2=O)nc2sc(C)c(C)c2c1=O (stereo unspecified) | active: -80.4%
76 | Nc1cc(N)nc(SCC(=O)Nc2ccc(Br)cc2Cl)n1 | inactive: 15.1%
77 | CC(NS(=O)(=O)c1ccc(Cl)cc1)C(=O)NCc1ccco1 (stereo unspecified) | inconclusive: -39.5%
78 | COC(=O)CCCNS(=O)(=O)c1ccc2ccccc2c1 | inactive: -19.5%
79 | CCc1nc(SCC(=O)c2cc(C)ccc2C)n[nH]1 | inconclusive: -42.8%
80 | Cc1ccc(-c2nc(CS(=O)CC(=O)NC3CCC(C)CC3)c(C)o2)cc1 (stereo unspecified) | inactive: 38.4%
81 | CCCCN(CCCC)CCCNC(=O)C12CN(Cc3ccccc3)CC1C(c1cccc([N+](=O)[O-])c1)=NO2 (stereo unspecified) | inconclusive: -41.2%
82 | COc1ccc(C2(C(=O)NCc3ccco3)CCCC2)cc1OC | inactive: 11.1%
83 | CC/C(CC(C)(C)c1ccccc1)=N\O | inconclusive: -35.7%
84 | COC(=O)c1ccc2nc(NC(=O)COC(=O)CSc3nc(C)cc(C)n3)sc2c1 | inactive: 4.48%
85 | COC(=O)CCC(=O)CN | inactive: -19.4%
86 | c1cncc(N=c2scc(-c3cccc4ccccc34)n2CCCn2ccnc2)c1 | active: -92.5%
87 | Cc1cc(C)nc(N2CCCC(C(=O)Nc3ccc4nc(C)c(C)nc4c3)C2)n1 (stereo unspecified) | inactive: 4.99%
88 | CCc1cccc(NC(=O)CSc2nc3c(c(=O)[nH]2)CCCC3)c1 | inactive: 3.55%
89 | COC(=O)c1ccc(/C=N/NC(=O)c2cccc(F)c2)cc1 | inconclusive: -52.2%
90 | CCc1ccc(C(=O)CN2C(=O)NC(C)(CCc3ccccc3)C2=O)cc1 (stereo unspecified) | inconclusive: -39.6%
91 | COCCNc1nnc(SC(C)C(=O)Nc2ccc(-c3nc4ccc(C)cc4s3)cc2)s1 (stereo unspecified) | inactive: 6.58%

Taken from above.
activity change (PNC), negative = inhibition with CCc1nc(SCC(=O)c2cc(C)ccc2C)n[nH]1 is entered as inconclusive: -42.8%
activity change (PNC), negative = inhibition with CC/C(CC(C)(C)c1ccccc1)=N\O is entered as inconclusive: -35.7%
activity change (PNC), negative = inhibition with c1cncc(N=c2scc(-c3cccc4ccccc34)n2CCCn2ccnc2)c1 is entered as active: -92.5%
activity change (PNC), negative = inhibition with O=C(Nc1ccc2c(c1)OCCO2)C1CCCN(S(=O)(=O)c2cccc3nsnc23)C1 (stereo unspecified) is entered as active: -113%
activity change (PNC), negative = inhibition with CCCCN(CCCC)CCCNC(=O)C12CN(Cc3ccccc3)CC1C(c1cccc([N+](=O)[O-])c1)=NO2 (stereo unspecified) is entered as inconclusive: -41.2%
activity change (PNC), negative = inhibition with COC(=O)CCC(=O)CN is entered as inactive: -19.4%
activity change (PNC), negative = inhibition with Cc1ccc(S(=O)(=O)Nc2nc3ccc(S(C)(=O)=O)cc3s2)cc1 is entered as inconclusive: -40.5%
